Values quoted from earlier work in patent publication US20110306663A1 (Baylor Research Institute, priority 2010, published 2011).
At least one structure is not confirmed: it was looked up by name or label, or the drawing left a doubt.

Test system: isolated rat heart
Conditions: anaplerotic substrate added to perfusate containing only acetate or acetoacetate; cited from earlier work

Structure (SMILES)	Cardiac mechanical performance
CCC(=O)OC(CC(=O)[O-])C[N+](C)(C)C (centres unmarked) [propionylcarnitine]	Recovery of cardiac mechanical performance
CC(=O)C(=O)O [pyruvate]	Recovery of cardiac mechanical performance
